In patent publication EP0591697B1, “Cloning and characterization of the growth hormone releasing hormone receptor” (Thorner, Michael Oliver, priority 1992, dated 1994):
Several values for one entry are separate records, joined by “and”; a condition that tells them apart may be missing. Identical values can stand only once. At least one peptide structure holds a part that was inferred or is arguable (an end, a ring closure or a residue). Where a SMILES comes first, the peptide text is derived from it.

Assays:
GHRH receptor = test: Receptor binding of biotinylated GHRH analogs compared with GHRHa
GHRH-R [1] = test: GHRH binding assay in crude anterior pituitary membrane pellets (125I-GHRHa); set-up: species or system ovine
Method: Specific binding is defined as the difference in the binding seen with 20 pM iodinated analog alone and binding of the analog in the presence of 10 nM non-iodinated GHRHa.
All steps were performed at 4°C. Frozen ovine or bovine anterior pituitaries (ovine: approximately 1 gm/pituitary obtained from Dr. Ian Clarke, Melbourne, Australia; bovine: approximately 2.5 gm/pituitary special handling from Pel-Freez, of Rogers, Arkansas) were washed of blood, cleaned of connective tissue and homogenized (using a Dounce homogenizer) in 50mM HEPES buffer, 100 mM NaCl, 10mM EDTA, 0.1 µM EGTA, pH 7.4 with 0.5 mM PMSF (phenyl methyl sulfonyl fluoride), 10 µg/ml leupeptin, 10 µg/ml pepstatin A, and 200 U/ml (units/ml) aprotinin. This buffer is used to remove endogenous GTP which might be bound to G proteins and to restore high affinity binding. […]
1/50 pituitary equivalent per tube was incubated in binding buffer with approximately 100,000 counts of iodinated probe in a volume of 500 µl at room temperature for 1 hour. The total counts delivered and the percent of counts bound for each tube was determined with 3 to 6 replicates per experimental condition. Saturation binding profiles were analyzed with the computer program Ligand which performs a statistically weighted least squares fit to the exact ligand binding equation in nontransformed coordinates.

GHRH-R [2] = test: Photoaffinity cross-linking of receptor in pituitary membranes, SDS-PAGE autoradiography; type: binding, ovine; conditions: 10 nM GHRHa; 125I-GHRHa-ANB-NOS photoprobe
Method: Photoprobe binding in ovine pituitary membrane pellets was determined by γ-counting and UV induced cross-linking was examined by autoradiagraphy of sodium dodecylsulfate polyacrylamide electrophoresis (SDS-PAGE) gels. ^125I-GHRHa-ANB-NOS probe bound with an affinity of about one nanomole, nM (compared to about 160 picomole, pM, for GHRHa).
Photoprobe binding to membranes was evaluated with crude membrane binding assay and then analyzed further by SDS-PAGE electrophoresis to identify the binding sites. Photoprobes were incubated in the dark, photolysed for 10 minutes with a long wave (366 nm) UV lamp, and then the samples were pelleted. The pellets were counted and then extracted by boiling directly in SDS sample buffer (total SDS extracts). Alternatively, the labeled pellets were extracted in a mild detergent solution (5 mM CHAPS) centrifuged, and the chloroform/methanol concentrated supernatants denatured with SDS buffer (CHAPS extracts). These samples were then electrophoresed in SDS gels and autoradiographed.

Structure (SMILES) | receptor binding affinity compared to GHRHa (GHRH receptor) | displacement of both photoprobes from membrane pellets (GHRH-R [1]; 10 nM GHRHa) | Kd (GHRH-R [1]; saturation binding, single high affinity site, crude ovine pituitary membranes, program Ligand) | effect on 55 kDa cross-linked band (GHRH-R [2])
CCCC[C@H](NC(=O)[C@@H](NC(=O)[C@H](CC(=O)O)NC(=O)[C@H](CCC(N)=O)NC(=O)[C@H](CC(C)C)NC(=O)[C@H](CC(C)C)NC(=O)[C@H](CCCCN)NC(=O)[C@H](CCCNC(=N)N)NC(=O)[C@H](C)NC(=O)[C@H](CO)NC(=O)[C@H](CC(C)C)NC(=O)[C@H](CCC(N)=O)NC(=O)CNC(=O)[C@H](CC(C)C)NC(=O)[C@@H](NC(=O)[C@H](CCCCN)NC(=O)[C@H](CCCNC(=N)N)NC(=O)[C@H](Cc1ccc(O)cc1)NC(=O)[C@H](CO)NC(=O)[C@H](CC(N)=O)NC(=O)[C@@H](NC(=O)[C@H](Cc1ccccc1)NC(=O)[C@@H](NC(=O)[C@H](C)NC(=O)[C@H](CC(=O)O)NC(=O)[C@H](C)NC(=O)[C@@H](N)Cc1c[nH]cn1)[C@@H](C)CC)[C@@H](C)O)C(C)C)[C@@H](C)CC)C(=O)N[C@@H](CO)C(=O)N[C@@H](CCCNC(=N)N)C(=O)N[C@@H](CCC(N)=O)C(=O)N[C@@H](CCC(N)=O)C(=O)NCC(=O)N[C@@H](CCC(=O)O)C(=O)N[C@@H](CO)C(=O)N[C@@H](CC(N)=O)C(=O)N[C@@H](CCC(N)=O)C(=O)N[C@@H](CCC(=O)O)C(=O)N[C@@H](CCCNC(=N)N)C(=O)NCC(=O)N[C@@H](C)C(=O)N[C@@H](CCCCNC(=O)CCCC[C@@H]1SC[C@@H]2NC(=O)N[C@@H]21)C(N)=O [GHRHb, [His1, Nle27, Biotin-Lys41]-GHRH-(1-41)-NH2] | comparable to GHRHa |  |  | 
CCCC[C@H](NC(=O)[C@@H](NC(=O)[C@H](CC(=O)O)NC(=O)[C@H](CCC(N)=O)NC(=O)[C@H](CC(C)C)NC(=O)[C@H](CC(C)C)NC(=O)[C@H](CCCCN)NC(=O)[C@H](CCCNC(=N)N)NC(=O)[C@H](C)NC(=O)[C@H](CO)NC(=O)[C@H](CC(C)C)NC(=O)[C@H](CCC(N)=O)NC(=O)CNC(=O)[C@H](CC(C)C)NC(=O)[C@@H](NC(=O)[C@H](CCCCN)NC(=O)[C@H](CCCNC(=N)N)NC(=O)[C@H](Cc1ccc(O)cc1)NC(=O)[C@H](CO)NC(=O)[C@H](CC(N)=O)NC(=O)[C@@H](NC(=O)[C@H](Cc1ccccc1)NC(=O)[C@@H](NC(=O)[C@H](C)NC(=O)[C@H](CC(=O)O)NC(=O)[C@H](C)NC(=O)[C@@H](N)Cc1c[nH]cn1)[C@@H](C)CC)[C@@H](C)O)C(C)C)[C@@H](C)CC)C(=O)N[C@@H](CO)C(=O)N[C@@H](CCCNC(=N)N)C(=O)N[C@@H](CCC(N)=O)C(=O)N[C@@H](CCC(N)=O)C(=O)NCC(N)=O [GHRHa, [His^1, Nle^27]-GHRH-(1-32)-NH2] (HELM PEPTIDE1{H.A.D.A.I.F.T.N.S.Y.R.K.V.L.G.Q.L.S.A.R.K.L.L.Q.D.I.[Nle].S.R.Q.Q.G.[am]}$$$$V2.0) |  | totally displaced | 0.158 nM and ~0.16 nM and 0.15 nM | completely eliminated
